Data as given in PubChem BioAssay AID686943 (Drosophila RNAi Screening Center, 2013)

Test: 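Search across the genome for regulators of signalling from receptor tyrosine kinase to ERK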 (primary screen)
System: Drosophila S2R+ haemocyte-like cells expressing YFP-tagged ERK (Rolled)
Reagents: long dsRNA against Drosophila genes
Treatment: insulin stimulation versus unstimulated cells; dose and duration not given
Read-out: 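Per-plate z-scores of phospho-ERK immunostaining normalised to YFP-tagged ERK, measured with and without insulin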
Reading the numbers: replicate 1, z-score of dpERK with insulin: higher = more active ERK per ERK-YFP after insulin
The deposit covers about 23,000 reagents; this is a random part of those that have a named target and a result. 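Extra replicates exist only for a retested subset of genes; insulin dose and duration not given; both raised and lowered dpERK matter.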 A plus sign joins genes that one reagent is predicted to hit. Further read-outs or replicates are left out here. Not given: the amount of reagent, the time to read-out.

replicate 1, z-score of dpERK with insulin, by gene knocked down and reagent
Sin1 (SAPK-interacting protein 1): DRSC05965 0.75
RpS14a (Ribosomal protein S14a): DRSC18710 1.82
CG4382: DRSC02743 1.02
CG11951: DRSC14442 1.02
CG15082: DRSC06513 -1.08
CG31115: DRSC13692 0.79
CG11076: DRSC17197 0.15
CG5065: DRSC06912 0.8
ND-24 (NADH dehydrogenase (ubiquinone) 24 kDa subunit): DRSC19960 0.27
CG32599: DRSC19433 1.13
PIP4K (Phosphatidylinositol 5-phosphate 4-kinase): DRSC17213 -0.02
Or67d (Odorant receptor 67d): DRSC10158 0.51
CG13377: DRSC18622 1.23

Laid out differently: entries from further up.
gene knocked down | amplicon | replicate 1, z-score of dpERK with insulin
CG11076 | DRSC17197 | 0.15
CG5065 | DRSC06912 | 0.8
ND-24 (NADH dehydrogenase (ubiquinone) 24 kDa subunit) | DRSC19960 | 0.27
CG32599 | DRSC19433 | 1.13
PIP4K (Phosphatidylinositol 5-phosphate 4-kinase) | DRSC17213 | -0.02

Continued.
replicate 1, z-score of dpERK with insulin, by gene knocked down and reagent
jumu (jumeau): DRSC16651 0.8
CG32053: DRSC10683 0.18
CCHa1 (CCHamide-1): DRSC14821 -0.53
CCT4 (Chaperonin containing TCP1 subunit 4): DRSC02865 -0.5
Atg13 (Autophagy-related 13): DRSC16228 0.18
Prp31 (Pre-mRNA processing factor 31): DRSC10735 0.73
Ada1-1 + Ada1-2: DRSC01220 0.25; DRSC01222 -0.38
CG9663: DRSC00724 0.6
Gpo1 (Glycerophosphate oxidase 1): DRSC07128 0.56
CG5098: DRSC06915 0.02
CG32720: DRSC17529 0.56
CG17290: DRSC06662 -0.08
Nepl8 (Neprilysin-like 8): DRSC02759 0.65
CG12121: DRSC17816 0.72
CG15005: DRSC08459 0.85
CG15046: DRSC19622 1.03
Glyp (Glycogen phosphorylase): DRSC00752 -1.18
GatC + PolG2: DRSC03312 0.48
CG34253 + lncRNA:CR32194: DRSC09531 -0.22
CG10862: DRSC08170 0.67
CG7968: DRSC01903 -0.06
ND-49 (NADH dehydrogenase (ubiquinone) 49 kDa subunit): DRSC17151 -0.37
CG17780: DRSC15265 -0.74
TTLL15 (Tubulin tyrosine ligase-like 15): DRSC15543 0.99
ND-51 (NADH dehydrogenase (ubiquinone) 51 kDa subunit): DRSC03145 -0.19
